Counter-ions that a name gives are not always drawn. For at least one compound, name, drawing or mass did not settle the structure.
target: T1, His-hSHIP1 enzyme (Homo sapiens, UniProt Q92835); experiment: His-hSHIP1 activity (phosphatase assay, IP4 substrate, Biomol Green); type: biochemical; parameters: key: +++: higher than reference or reference - 15%; ++: reference - 16% to reference - 30%; +: reference - 31% or lower; −: inhibitor; conditions: ratio of initial velocities (IP4 25/IP4 250 μM final) compared with a reference SHIP1 activator; 37° C.
T1 construct: His
T1 sequence (Q92835 1-1189): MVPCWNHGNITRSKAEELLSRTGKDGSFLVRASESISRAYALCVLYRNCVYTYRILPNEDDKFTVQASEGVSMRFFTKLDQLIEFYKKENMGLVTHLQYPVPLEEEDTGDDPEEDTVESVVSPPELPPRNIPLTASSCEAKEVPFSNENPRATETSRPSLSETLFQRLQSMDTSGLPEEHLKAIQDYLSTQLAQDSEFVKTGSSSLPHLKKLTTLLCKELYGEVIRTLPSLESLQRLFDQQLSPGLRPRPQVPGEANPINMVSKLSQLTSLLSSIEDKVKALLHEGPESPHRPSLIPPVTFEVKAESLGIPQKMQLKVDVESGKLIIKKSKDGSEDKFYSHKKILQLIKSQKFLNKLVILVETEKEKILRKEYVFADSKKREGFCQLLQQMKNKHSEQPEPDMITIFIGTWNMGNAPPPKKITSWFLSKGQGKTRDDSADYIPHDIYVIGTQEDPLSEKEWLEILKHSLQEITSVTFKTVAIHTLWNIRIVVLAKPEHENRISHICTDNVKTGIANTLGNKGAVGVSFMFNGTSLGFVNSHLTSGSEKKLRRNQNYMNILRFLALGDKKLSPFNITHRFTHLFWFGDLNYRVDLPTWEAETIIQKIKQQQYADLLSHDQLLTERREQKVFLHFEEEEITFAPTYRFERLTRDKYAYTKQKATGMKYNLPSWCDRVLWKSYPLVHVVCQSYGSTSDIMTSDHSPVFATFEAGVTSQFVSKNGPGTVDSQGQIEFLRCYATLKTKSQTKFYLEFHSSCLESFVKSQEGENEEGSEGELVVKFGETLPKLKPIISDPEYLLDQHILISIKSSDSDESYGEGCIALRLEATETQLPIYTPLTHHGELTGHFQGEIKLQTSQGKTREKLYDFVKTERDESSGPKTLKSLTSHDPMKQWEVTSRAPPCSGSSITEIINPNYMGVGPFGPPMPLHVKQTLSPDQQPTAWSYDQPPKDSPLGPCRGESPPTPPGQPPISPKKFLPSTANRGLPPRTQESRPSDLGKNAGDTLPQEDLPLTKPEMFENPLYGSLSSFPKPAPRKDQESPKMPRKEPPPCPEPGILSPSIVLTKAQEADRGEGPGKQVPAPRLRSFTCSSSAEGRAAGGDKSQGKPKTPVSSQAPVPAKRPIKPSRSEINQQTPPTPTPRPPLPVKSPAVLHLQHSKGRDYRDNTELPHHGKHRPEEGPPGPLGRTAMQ
Method: Test compounds are dissolved in 95% ethanol to form stock solutions. Before screening, the stock solutions are diluted with Phosphatase Assay Buffer (20 mM Tris-HCL, 10 mM MgCl2 pH 7.5, 0.02% Tween 20) to form working assay solutions that contain 10% ethanol. The assay is carried out on 96-well microtiter plates using a modified procedure of that reported by Ong et al., Blood 110, 1942-1949, 2007 and Yang et al., Org Lett 7, 1073-1076, 2005, both of which references are incorporated herein by reference in their entirety.
A master mix is prepared that contains 50 μL of His-hSHIP1 enzyme (0.4-1.6 ng/μL final), 25 μL of the substrate, IP4 (25 or 250 μM final), and 50 μL of test compound in 3.3% ethanol ([…]). Control blanks are also prepared by replacing His-hSHIP1 enzyme, IP4, or test compounds with Phosphate Assay Buffer. […] Each reaction component is preincubated at 37° C. for 30 min before adding to a 96-well microtiter plate. The master mix is then incubated at 37° C. At time 0, 20, 25 and 30 min, 25 μL of the master mix is removed and transferred to a new 96-well microtiter plate, to which 100 μL of Biomol Green Reagent is added to stop the reaction. After incubating the mixture for 20 min at room temperature for color development, the absorbance is read with SpectraMax Plus 96-well plate reader at a wavelength of 650 nm. Phosphate released is plotted against time to calculate the initial velocities (i.e., slope of the graph) at each IP4 concentration. The initial velocities are baseline corrected and the ratio of initial velocities (IP425/IP4250) is calculated and used to rate the test compounds.
The compound numbers in Table 2 correspond to the compound numbers in Table 1 above. Scoring of the compound is expressed as follows: […]

Scoring (Initial Velocity Ratio), ++:
CCNC(=O)NC[C@H]1C2=C(CC[C@@H]1[C@@]1(C)CC[C@H](O)C[C@@H]1CO)C(C)(C)CC2 [compound 5, 1-ethyl-3-(((4R,5S)-5-((1R,2S,4S)-4-hydroxy-2-(hydroxymethyl)-1-methylcyclohexyl)-1,1-dimethyl-2,3,4,5,6,7-hexahydro-1H-inden-4-yl)methyl)urea]
C[C@]1([C@H]2CC[C@@]3(C)[C@@H](CC[C@@]3(O)c3cccs3)[C@@H]2CN)CC[C@H](O)C[C@@H]1CO [compound 15, (1S,3aS,4R,5S,7aS)-4-(aminomethyl)-5-((1R,2S,4S)-4-hydroxy-2-(hydroxymethyl)-1-methylcyclohexyl)-7a-methyl-1-(thiophen-2-yl)octahydro-1H-inden-1-ol]
CNC(=S)NC[C@H]1C2=C(CC[C@@H]1[C@@]1(C)CC[C@H](O)C[C@@H]1CO)C(C)(C)CC2 [compound 6, 1-(((4R,5S)-5-((1R,2S,4S)-4-hydroxy-2-(hydroxymethyl)-1-methylcyclohexyl)-1,1-dimethyl-2,3,4,5,6,7-hexahydro-1H-inden-4-yl)methyl)-3-methylthiourea]

Scoring (Initial Velocity Ratio), +:
C[C@]1([C@H]2CC[C@@]3(C)[C@@H](CC[C@@]3(O)c3ccco3)[C@@H]2CO)CC[C@H](O)C[C@@H]1CO [compound 31, (1S,3aS,4R,5S,7aS)-1-(furan-2-yl)-5-((1R,2S,4S)-4-hydroxy-2-(hydroxymethyl)-1-methylcyclohexyl)-4-(hydroxymethyl)-7a-methyloctahydro-1H-inden-1-ol]
CN1CCC(NC[C@H]2C3=C(CC[C@@H]2[C@@]2(C)CC[C@H](O)C[C@@H]2CO)C(C)(C)CC3)CC1 [compound 2, (1S,3S,4R)-4-((4R,5S)-1,1-dimethyl-4-((1-methylpiperidin-4-ylamino)methyl)-2,3,4,5,6,7-hexahydro-1H-inden-5-yl)-3-(hydroxymethyl)-4-methylcyclohexanol]
C[C@]1([C@H]2CC[C@]3(C)NC(=O)CC[C@H]3[C@@H]2CN)CC[C@H](O)C[C@@H]1CO [compound 8, (4aS,5R,6S,8aS)-5-(aminomethyl)-6-((1R,2S,4S)-4-hydroxy-2-(hydroxymethyl)-1-methylcyclohexyl)-8a-methyloctahydroquinolin-2(1H)-one]
CC1(C)CCC2=C1CC[C@H]([C@@]1(C)CC[C@H](O)C[C@@H]1CO)[C@H]2CNC(=O)Nc1cccnc1 [compound 4, 1-(((4R,5S)-5-((1R,2S,4S)-4-hydroxy-2-(hydroxymethyl)-1-methylcyclohexyl)-1,1-dimethyl-2,3,4,5,6,7-hexahydro-1H-inden-4-yl)methyl)-3-(pyridin-3-yl)urea]
C[C@]1([C@H]2CC[C@]3(C)c4[nH]ncc4C[C@H]3[C@@H]2CN)CC[C@H](O)C[C@@H]1CO [compound 7, (1S,3S,4R)-4-((4aS,5R,6S,8aS)-5-(aminomethyl)-8a-methyl-2,4,4a,5,6,7,8,8a-octahydroindeno[1,2-c]pyrazol-6-yl)-3-(hydroxymethyl)-4-methylcyclohexanol dihydrochloride]
